The supplement of paper PMC10338343
± gives the standard deviation. Some of the results follow. The uncertainty is large for many entries.

test system: EfPiwi piRISC loaded with L1MC piRNA (26 nt); experiment: pre-steady-state target cleavage rate (min^-1); guide: L1MC piRNA 5'p-UAACUAAAUACUAUGCAAGCUGUAGG; MIWI and MILI are mouse PIWI proteins and EfPiwi is from a freshwater sponge; tags in brackets are library labels; higher = faster piRNA-guided slicing of the target; settings: auxiliary factor: none (no Gtsf1)
Summary of the method: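 The pre-steady-state cleavage rate was calculated from a burst-and-steady-state fit. Data came from Cleave-'n-Seq, in which […] transcribed, DNA-blocked target RNA library was mixed with 1 nM active affinity-purified piRISC carrying one synthetic guide, with or without 500 nM GTSF1 partner protein, in HEPES–potassium acetate buffer at 33 °C for 0–8 or 0–960 min. Uncleaved targets were sequenced and normalised to depth and to weakly complementary targets, three trials were pooled, and k3 was capped at 0.0001 min^-1.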

Sequence	pre-steady-state target cleavage rate
UCCUGGUACAGCUUGACAUAGUAUUUAGUUA	0.000234 ± 0.047
UCCUGGAUGUCGAACCAUAGUAUGUUAGUUA	0.000439 ± 0.015
UCCUCCUAGAGCUUCCAUAGUAUUUAGUUA	0.000373 ± 0.012
